{"source": "paper PMC8564014", "binders": {"B1": {"name": "MAVS, Q7Z434 1-540 (protein)", "chain": "MPFAEDKTYKYICRNFSNFCNVDVVEILPYLPCLTARDQDRLRATCTLSGNRDTLWHLFNTLQRRPGWVEYFIAALRGCELVDLADEVASVYQSYQPRTSDRPPDPLEPPSLPAERPGPPTPAAAHSIPYNSCREKEPSYPMPVQETQAPESPGENSEQALQTLSPRAIPRNPDGGPLESSSDLAALSPLTSSGHQEQDTELGSTHTAGATSSLTPSRGPVSPSVSFQPLARSTPRASRLPGPTGSVVSTGTSFSSSSPGLASAGAAEGKQGAESDQAEPIICSSGAEAPANSLPSKVPTTLMPVNTVALKVPANPASVSTVPSKLPTSSKPPGAVPSNALTNPAPSKLPINSTRAGMVPSKVPTSMVLTKVSASTVPTDGSSRNEETPAAPTPAGATGGSSAWLDSSSENRGLGSELSKPGVLASQVDSPFSGCFEDLAISASTSLGMGPCHGPEENEYKSEGTFGIHVAENPSIQLLEGNPGPPADPDGGPRPQADRKFQEREVPCHRPSPGALWLQVAVTGVLVVTLLVVLYRRRLH"}, "B2": {"name": "GUCY1B3 (protein, UniProt Q02153 1-619)", "chain": "MYGFVNHALELLVIRNYGPEVWEDIKKEAQLDEEGQFLVRIIYDDSKTYDLVAAASKVLNLNAGEILQMFGKMFFVFCQESGYDTILRVLGSNVREFLQNLDALHDHLATIYPGMRAPSFRCTDAEKGKGLILHYYSEREGLQDIVIGIIKTVAQQIHGTEIDMKVIQQRNEECDHTQFLIEEKESKEEDFYEDLDRFEENGTQESRISPYTFCKAFPFHIIFDRDLVVTQCGNAIYRVLPQLQPGNCSLLSVFSLVRPHIDISFHGILSHINTVFVLRSKEGLLDVEKLECEDELTGTEISCLRLKGQMIYLPEADSILFLCSPSVMNLDDLTRRGLYLSDIPLHDATRDLVLLGEQFREEYKLTQELEILTDRLQLTLRALEDEKKKTDTLLYSVLPPSVANELRHKRPVPAKRYDNVTILFSGIVGFNAFCSKHASGEGAMKIVNLLNDLYTRFDTLTDSRKNPFVYKVETVGDKYMTVSGLPEPCIHHARSICHLALDMMEIAGQVQVDGESVQITIGIHTGEVVTGVIGQRMPRYCLFGNTVNLTSRTETTGEKGKINVSEYTYRCLMSPENSDPQFHLEHRGPVSMKGKKEPMQVWFLSRKNTGTEETKQDDD"}, "B3": {"name": "PISD (protein, UniProt Q9UG56 53-409)", "chain": "IHTAPARTMFLLRPLPILLVTGGGYAGYRQYEKYRERELEKLGLEIPPKLAGHWEVALYKSVPTRLLSRAWGRLNQVELPHWLRRPVYSLYIWTFGVNMKEAAVEDLHHYRNLSEFFRRKLKPQARPVCGLHSVISPSDGRILNFGQVKNCEVEQVKGVTYSLESFLGPRMCTEDLPFPPAASCDSFKNQLVTREGNELYHCVIYLAPGDYHCFHSPTDWTVSHRRHFPGSLMSVNPGMARWIKELFCHNERVVLTGDWKHGFFSLTAVGATNVGSIRIYFDRDLHTNSPRHSKGSYNDFSFVTHTNREGVPMRKGEHLGEFNLGSTIVLIFEAPKDFNFQLKTGQKIRFGEALGSL"}, "B4": {"name": "SLC25A40 (protein, UniProt Q8TBP6 1-338)", "chain": "MDPETRGQEIIKVTPLQQMLASCTGAILTSVIVTPLDVVKIRLQAQNNPLPKGKCFVYSNGLMDHLCVCEEGGNKLWYKKPGNFQGTLDAFFKIIRNEGIKSLWSGLPPTLVMAVPATVIYFTCYDQLSALLRSKLGENETCIPIVAGIVARFGAVTVISPLELIRTKMQSKKFSYVELHRFVSKKVSEDGWISLWRGWAPTVLRDVPFSAMYWYNYEILKKWLCEKSGLYEPTFMINFTSGALSGSFAAVATLPFDVVKTQKQTQLWTYESHKISMPLHMSTWIIMKNIVAKNGFSGLFSGLIPRLIKIAPACAIMISTYEFGKAFFQKQNVRRQQY"}, "B5": {"name": "HDHD3 (protein, UniProt Q9BSH5 1-251)", "chain": "MAHRLQIRLLTWDVKDTLLRLRHPLGEAYATKARAHGLEVEPSALEQGFRQAYRAQSHSFPNYGLSHGLTSRQWWLDVVLQTFHLAGVQDAQAVAPIAEQLYKDFSHPCTWQVLDGAEDTLRECRTRGLRLAVISNFDRRLEGILGGLGLREHFDFVLTSEAAGWPKPDPRIFQEALRLAHMEPVVAAHVGDNYLCDYQGPRAVGMHSFLVVGPQALDPVVRDSVPKEHILPSLAHLLPALDCLEGSTPGL"}, "B6": {"name": "CDS2 (protein, UniProt O95674 1-445)", "chain": "MTELRQRVAHEPVAPPEDKESESEAKVDGETASDSESRAESAPLPVSADDTPEVLNRALSNLSSRWKNWWVRGILTLAMIAFFFIIIYLGPMVLMIIVMCVQIKCFHEIITIGYNVYHSYDLPWFRTLSWYFLLCVNYFFYGETVTDYFFTLVQREEPLRILSKYHRFISFTLYLIGFCMFVLSLVKKHYRLQFYMFGWTHVTLLIVVTQSHLVIHNLFEGMIWFIVPISCVICNDIMAYMFGFFFGRTPLIKLSPKKTWEGFIGGFFATVVFGLLLSYVMSGYRCFVCPVEYNNDTNSFTVDCEPSDLFRLQEYNIPGVIQSVIGWKTVRMYPFQIHSIALSTFASLIGPFGGFFASGFKRAFKIKDFANTIPGHGGIMDRFDCQYLMATFVNVYIASFIRGPNPSKLIQQFLTLRPDQQLHIFNTLRSHLIDKGMLTSTTEDE"}}, "note": "These are yes or no findings as the source states them, for the method shown. Binding seen in cells or lysates may run through a third protein. Here binding means that the protein was enriched with, or labelled near, the bait; the list need not be complete. For part of these data: A no says only that the protein was not detected with the bait. For part of these data: Sequences can lack the tags named with a protein."}
{"biological_target": "T1, TRAF3-SBP-6xHis (in transduced human MM 8226 cells) (human), Q13114", "T1 chain": "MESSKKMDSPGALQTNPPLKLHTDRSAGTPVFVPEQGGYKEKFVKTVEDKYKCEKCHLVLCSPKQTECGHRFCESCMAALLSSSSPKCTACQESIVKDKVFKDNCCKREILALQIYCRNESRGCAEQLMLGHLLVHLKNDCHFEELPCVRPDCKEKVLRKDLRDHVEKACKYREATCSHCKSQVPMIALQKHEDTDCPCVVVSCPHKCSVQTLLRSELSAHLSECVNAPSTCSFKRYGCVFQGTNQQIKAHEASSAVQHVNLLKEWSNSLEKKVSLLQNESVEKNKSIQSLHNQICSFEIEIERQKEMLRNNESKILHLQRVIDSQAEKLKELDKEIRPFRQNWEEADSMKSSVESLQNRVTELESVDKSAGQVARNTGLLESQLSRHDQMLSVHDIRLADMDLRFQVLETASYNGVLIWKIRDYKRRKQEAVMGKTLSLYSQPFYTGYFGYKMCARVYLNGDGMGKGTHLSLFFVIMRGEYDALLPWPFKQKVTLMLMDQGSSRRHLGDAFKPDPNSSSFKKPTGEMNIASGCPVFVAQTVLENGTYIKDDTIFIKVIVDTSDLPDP", "assay": "affinity purification with mass spectrometry; mitochondria isolated from 8226 cells transduced with pUB-TRAF3-SBP-6xHis, lysed in 1% CHAPS lysis buffer; TRAF3-SBP-6xHis captured on Streptavidin-Sepharose beads, 5 washes; LC-MS/MS of gel slices; cells transduced with FLAG-TRAF3 as negative control", "conditions": "remark: other sources report otherwise"}
{"binder": "B1", "binding": "no binding"}
{"biological_target": "TRAF3-SBP-6xHis (in transduced human MM 8226 cells) (human) (UniProt Q13114)", "assay": "affinity purification with mass spectrometry; mitochondria isolated from 8226 cells transduced with pUB-TRAF3-SBP-6xHis, lysed in 1% CHAPS lysis buffer; TRAF3-SBP-6xHis captured on Streptavidin-Sepharose beads, 5 washes; LC-MS/MS of gel slices; cells transduced with FLAG-TRAF3 as negative control", "conditions": "not given"}
{"binder": "B2", "binding": "binds"}
{"binder": "B3", "binding": "binds"}
{"binder": "B4", "binding": "binds"}
{"binder": "B5", "binding": "binds"}
{"binder": "B6", "binding": "binds"}
